Laboratory results from PMC4958240.
Results are given in words; binding and its absence hold for the method and conditions named. Binding calls can cover weak binding; strength is not graded here.

The chains behind the UniProt entries cited, without tags or fusion partners. Residues count along the entry.
UniProt Q9H3P7, residues 188-528: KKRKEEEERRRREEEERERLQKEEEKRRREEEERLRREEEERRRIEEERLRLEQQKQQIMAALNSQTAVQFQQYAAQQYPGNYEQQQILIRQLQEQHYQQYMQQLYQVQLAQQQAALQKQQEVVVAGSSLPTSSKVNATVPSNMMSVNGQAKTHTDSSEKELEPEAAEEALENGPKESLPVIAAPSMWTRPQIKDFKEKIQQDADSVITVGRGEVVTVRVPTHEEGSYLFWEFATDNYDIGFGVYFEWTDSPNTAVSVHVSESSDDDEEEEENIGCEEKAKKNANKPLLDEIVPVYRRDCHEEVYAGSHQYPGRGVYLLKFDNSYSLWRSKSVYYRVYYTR

Key:
[1] = target: SseG fused to the GAL4 DNA-binding domain (bait plasmid pGBT-sseG) (Salmonella enterica serovar Typhimurium strain 12023); experiment: two-hybrid; library screen: bait pGBT-sseG against a pretransformed human HeLa Matchmaker cDNA library; growth on SD-QDO (SD/-Leu-Trp-His-Ade)
[2] = target: SseG fused to the GAL4 DNA-binding domain (bait plasmid pGBT-sseG) (Salmonella enterica serovar Typhimurium strain 12023); experiment: two-hybrid; pairwise test in S. cerevisiae PJ69-4A: baits in pGBT9, prey pGAD-ACBD3_(188-528); growth on SD-QDO (SD/-Leu-Trp-His-Ade) against SD-DDO

ACBD3 residues 188 to 528, prey clone pGAD-cDNA1 isolated from the HeLa cDNA library (from UniProt Q9H3P7 188-528) (domain or fragment)
binding [1]: binds

ACBD3_(188-528) subcloned into pGAD424 (pGAD-ACBD3_(188-528)) (from UniProt Q9H3P7 188-528) (domain or fragment)
binding [2]: binds
